# According to PubChem BioAssay AID624344 (Sanford-Burnham Center for Chemical Genomics, 2012):
# Calls of active or inactive are those of the source. No rule for the calls is given here.
# Key:
# Cytotoxicity = assay: inhibitors of PAF-induced NFkB signaling in CF airway cells, dose response, cell-based, uHTS hits, panel, cytotoxicity readout (AID 624344); settings: CF bronchial epithelial cells, mean of runs
# [1] = as above; settings: CF bronchial epithelial cells, PAF-induced NFkB reporter inhibition; with PAF, mean of runs
smiles,measurement,setting,value
COc1c(O)cc2c(c1OC)-c1ccc(OC)c(=O)cc1C(NC(C)=O)CC2 (configuration not stated),IC50,Cytotoxicity,inactive: > 79 µM
same,IC50,[1],inactive: > 79 µM
